Among the data in article PMC4648065 are binding values, retold here.

Chains of the proteins cited; added tags and fusions are not shown.
UniProt Q16531: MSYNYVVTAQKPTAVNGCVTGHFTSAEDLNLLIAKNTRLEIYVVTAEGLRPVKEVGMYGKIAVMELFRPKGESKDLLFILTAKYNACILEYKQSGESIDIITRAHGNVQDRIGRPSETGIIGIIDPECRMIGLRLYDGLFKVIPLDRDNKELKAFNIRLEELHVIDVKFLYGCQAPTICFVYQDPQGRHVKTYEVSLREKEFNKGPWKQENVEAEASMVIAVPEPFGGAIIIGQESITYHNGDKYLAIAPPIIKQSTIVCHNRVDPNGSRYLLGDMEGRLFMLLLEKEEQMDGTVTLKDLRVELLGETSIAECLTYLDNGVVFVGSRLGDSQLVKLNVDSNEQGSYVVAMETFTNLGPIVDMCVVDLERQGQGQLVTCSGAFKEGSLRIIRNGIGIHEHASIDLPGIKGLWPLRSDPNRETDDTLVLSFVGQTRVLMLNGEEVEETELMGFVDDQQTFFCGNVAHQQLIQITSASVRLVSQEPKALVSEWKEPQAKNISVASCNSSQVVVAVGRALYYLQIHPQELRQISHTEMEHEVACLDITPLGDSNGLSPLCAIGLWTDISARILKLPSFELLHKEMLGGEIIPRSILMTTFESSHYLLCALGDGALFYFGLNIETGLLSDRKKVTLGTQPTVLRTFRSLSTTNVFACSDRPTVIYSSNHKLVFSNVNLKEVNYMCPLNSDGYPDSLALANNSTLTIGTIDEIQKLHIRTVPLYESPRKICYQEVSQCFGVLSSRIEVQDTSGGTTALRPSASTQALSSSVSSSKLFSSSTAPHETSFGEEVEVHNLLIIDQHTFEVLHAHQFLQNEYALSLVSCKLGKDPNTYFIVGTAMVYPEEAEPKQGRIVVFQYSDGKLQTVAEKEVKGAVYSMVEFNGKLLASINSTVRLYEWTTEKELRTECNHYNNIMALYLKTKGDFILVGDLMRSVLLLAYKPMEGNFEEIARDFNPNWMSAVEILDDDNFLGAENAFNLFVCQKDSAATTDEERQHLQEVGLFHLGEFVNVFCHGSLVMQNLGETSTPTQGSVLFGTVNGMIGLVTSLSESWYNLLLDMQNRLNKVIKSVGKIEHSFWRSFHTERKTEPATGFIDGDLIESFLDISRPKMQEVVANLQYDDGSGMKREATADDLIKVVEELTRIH
UniProt Q92466: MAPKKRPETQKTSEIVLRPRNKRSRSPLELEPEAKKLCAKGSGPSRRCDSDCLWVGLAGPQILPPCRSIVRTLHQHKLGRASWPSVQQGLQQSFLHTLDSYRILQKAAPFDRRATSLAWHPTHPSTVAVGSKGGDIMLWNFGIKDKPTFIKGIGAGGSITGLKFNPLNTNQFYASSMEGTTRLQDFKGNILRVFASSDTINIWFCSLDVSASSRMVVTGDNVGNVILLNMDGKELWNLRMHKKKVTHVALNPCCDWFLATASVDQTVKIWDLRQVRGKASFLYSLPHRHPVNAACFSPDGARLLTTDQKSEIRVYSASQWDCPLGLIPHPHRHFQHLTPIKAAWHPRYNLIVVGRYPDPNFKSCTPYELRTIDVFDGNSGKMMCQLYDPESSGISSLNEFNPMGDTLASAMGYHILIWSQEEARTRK

For this test, the target named is DDB1 subunit of human UV-damaged DNA-binding protein (UV-DDB) (human) (UniProt Q16531). The test can be described thus: co-purification of a recombinant heterodimer; UV-DDB (DDB1-DDB2 heterodimer) expressed in insect cells and purified as described previously (ref. 23).

Results are given in words; binding and its absence hold for the method and conditions named. Some results given as binding are weak or reduced against the parent protein; the word gives no strength.

As for “DDB2 subunit of human UV-damaged DNA-binding protein (UV-DDB) (from UniProt Q92466 1-427)”, the binding result is given as “binds”.
